{"source": "the supplement of paper PMC8728848", "binders": {"B1": {"name": "FimA (Actinomyces oris) (protein)", "chain": "MHHHHHHSSGVDLGTENLYFQSNAETPNYGNIKTDATGSLVIHKHLTGGGKDIGTPTGTAQNADDKGPAVEGVVFTAYPITDINLKDPAGWDTISNLSRTGVPDSACANPAAPTLGAHQFGTPKVSPATTKEGLATITEMPVQAYLVCETTTPGDIVQKAKPFVVTIPHPNTAAGADGQWIYDVNVYPKNEAIDVDKTIQAQKLNGYGVGSLIKFPVESTAPTLDAKSFYKYFQLKDTLDERLSEVTATDVSLEGTPLQPTDYKVETKQQTVTVTFTAEGLKKIKAAPGKKVSAVFQGKVTKAGNGAITNRAQVISDTLYAEQPPTPETPPTDPENPPTSDEVISRWGDLSIKKVDTHQQGQTKAGLQGAQFQLYKAKNAYANTCSNEKEGAPIAINGQTTLTTDAQGAIDIKGLFISDSIDGADRDNQVNAMERCYVLVETKAPAGYVLPAGNGAATPVKVKAGEETTDNVTVENTKQSVPGLPLTG"}}, "assay_in_all_cases": "glycan array binding signal (z-score within array); higher = stronger binding", "conditions_in_all_cases": "glycan notation: IUPAC condensed, linker removed", "key": {"Gal(a1-3)Gal(b1-3)GlcNAc": {"target": "Gal(a1-3)Gal(b1-3)GlcNAc", "how_it_was_run": "(§1)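 From the Consortium for Functional Glycomics database, 3228 arrays were curated, keeping only those whose protein sequence was available. Binding is given as a within-array Z-score averaged across arrays sharing a protein sequence and across linkers. Negative Z-scores can be read as non-binding.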"}, "[1]": {"target": "Gal(a1-3)Gal(b1-3)GlcNAc(b1-2)Man", "how_it_was_run": "as §1"}, "[2]": {"target": "Gal(a1-3)Gal(b1-3)GlcNAc(b1-2)Man(a1-3)[Gal(a1-3)Gal(b1-3)GlcNAc(b1-2)Man(a1-6)]Man(b1-4)GlcNAc(b1-4)GlcNAc", "how_it_was_run": "as §1"}, "[3]": {"target": "Gal(a1-3)Gal(b1-3)GlcNAc(b1-3)GalNAc", "how_it_was_run": "as §1"}, "[4]": {"target": "Gal(a1-3)Gal(b1-3)GlcNAc(b1-6)GalNAc", "how_it_was_run": "as §1"}, "[5]": {"target": "Gal(a1-3)Gal(b1-3)[Fuc(a1-4)]GlcNAc(b1-2)Man(a1-3)[Gal(a1-3)Gal(b1-3)[Fuc(a1-4)]GlcNAc(b1-2)Man(a1-6)]Man(b1-4)GlcNAc(b1-4)GlcNAc", "how_it_was_run": "as §1"}, "Gal(a1-3)Gal(b1-4)Glc": {"target": "Gal(a1-3)Gal(b1-4)Glc", "how_it_was_run": "as §1"}, "Gal(a1-3)Gal(b1-4)GlcNAc": {"target": "Gal(a1-3)Gal(b1-4)GlcNAc", "how_it_was_run": "as §1"}, "[6]": {"target": "Gal(a1-3)Gal(b1-4)GlcNAc(b1-2)Man", "how_it_was_run": "as §1"}, "[7]": {"target": "Gal(a1-3)Gal(b1-4)GlcNAc(b1-2)Man(a1-3)[Gal(a1-3)Gal(b1-4)GlcNAc(b1-2)Man(a1-6)]Man(b1-4)GlcNAc(b1-4)GlcNAc", "how_it_was_run": "as §1"}, "[8]": {"target": "Gal(a1-3)Gal(b1-4)GlcNAc(b1-3)GalNAc", "how_it_was_run": "as §1"}, "[9]": {"target": "Gal(a1-3)Gal(b1-4)GlcNAc(b1-6)GalNAc", "how_it_was_run": "as §1"}, "[10]": {"target": "Gal(a1-3)Gal(b1-4)[Fuc(a1-3)]GlcNAc", "how_it_was_run": "as §1"}, "[11]": {"target": "Gal(a1-3)Gal(b1-4)[Fuc(a1-3)]GlcNAc(b1-2)Man(a1-3)[Gal(a1-3)Gal(b1-4)[Fuc(a1-3)]GlcNAc(b1-2)Man(a1-6)]Man(b1-4)GlcNAc(b1-4)GlcNAc", "how_it_was_run": "as §1"}, "Gal(a1-3)GalNAc": {"target": "Gal(a1-3)GalNAc", "how_it_was_run": "as §1"}, "[12]": {"target": "Gal(a1-3)[Gal(a1-4)]Gal(b1-4)GlcNAc", "how_it_was_run": "as §1"}, "[13]": {"target": "Gal(a1-4)Gal(b1-3)GlcNAc(b1-2)Man(a1-3)[Gal(a1-4)Gal(b1-3)GlcNAc(b1-2)Man(a1-6)]Man(b1-4)GlcNAc(b1-4)GlcNAc", "how_it_was_run": "as §1"}, "Gal(a1-4)Gal(b1-4)Glc": {"target": "Gal(a1-4)Gal(b1-4)Glc", "how_it_was_run": "as §1"}, "Gal(a1-4)Gal(b1-4)GlcNAc": {"target": "Gal(a1-4)Gal(b1-4)GlcNAc", "how_it_was_run": "as §1"}, "[14]": {"target": "Gal(a1-4)Gal(b1-4)GlcNAc(b1-2)Man(a1-3)[Gal(a1-4)Gal(b1-4)GlcNAc(b1-2)Man(a1-6)]Man(b1-4)GlcNAc(b1-4)GlcNAc", "how_it_was_run": "as §1"}, "[15]": {"target": "Gal(a1-4)Gal(b1-4)GlcNAc(b1-3)Gal(b1-4)Glc", "how_it_was_run": "as §1"}, "Gal(a1-4)GlcNAc": {"target": "Gal(a1-4)GlcNAc", "how_it_was_run": "as §1"}, "Gal(a1-6)Glc": {"target": "Gal(a1-6)Glc", "how_it_was_run": "as §1"}, "Gal(b1-2)Gal": {"target": "Gal(b1-2)Gal", "how_it_was_run": "as §1"}, "Gal(b1-3)Gal": {"target": "Gal(b1-3)Gal", "how_it_was_run": "as §1"}, "Gal(b1-3)Gal(b1-4)GlcNAc": {"target": "Gal(b1-3)Gal(b1-4)GlcNAc", "how_it_was_run": "as §1"}, "Gal(b1-3)GalNAc": {"target": "Gal(b1-3)GalNAc", "how_it_was_run": "as §1"}, "[16]": {"target": "Gal(b1-3)GalNAc(a1-3)[Fuc(a1-2)]Gal(b1-4)Glc", "how_it_was_run": "as §1"}, "[17]": {"target": "Gal(b1-3)GalNAc(a1-3)[Fuc(a1-2)]Gal(b1-4)GlcNAc", "how_it_was_run": "as §1"}, "Gal(b1-3)GalNAc(b1-3)Gal": {"target": "Gal(b1-3)GalNAc(b1-3)Gal", "how_it_was_run": "as §1"}, "[18]": {"target": "Gal(b1-3)GalNAc(b1-3)Gal(a1-4)Gal(b1-4)Glc", "how_it_was_run": "as §1"}, "[19]": {"target": "Gal(b1-3)GalNAc(b1-4)Gal(b1-4)Glc", "how_it_was_run": "as §1"}, "[20]": {"target": "Gal(b1-3)GalNAc(b1-4)[Neu5Ac(a2-3)]Gal(b1-4)Glc", "how_it_was_run": "as §1"}, "Gal(b1-3)GlcNAc": {"target": "Gal(b1-3)GlcNAc", "how_it_was_run": "as §1"}, "[21]": {"target": "Gal(b1-3)GlcNAc(a1-3)Gal(b1-4)GlcNAc", "how_it_was_run": "as §1"}, "[22]": {"target": "Gal(b1-3)GlcNAc(a1-6)Gal(b1-4)GlcNAc", "how_it_was_run": "as §1"}, "Gal(b1-3)GlcNAc(b1-2)Man": {"target": "Gal(b1-3)GlcNAc(b1-2)Man", "how_it_was_run": "as §1"}, "[23]": {"target": "Gal(b1-3)GlcNAc(b1-2)Man(a1-3)[Gal(b1-3)GlcNAc(b1-2)Man(a1-6)]Man(b1-4)GlcNAc(b1-4)GlcNAc", "how_it_was_run": "as §1"}}, "note": "The other results are listed elsewhere or left out.", "data": [{"binder": "B1", "values": [{"measurement": "glycan array binding signal (z-score)", "setting": "Gal(a1-3)Gal(b1-3)GlcNAc", "result": -0.412}, {"measurement": "glycan array binding signal (z-score)", "setting": "[1]", "result": 0.196}, {"measurement": "glycan array binding signal (z-score)", "setting": "[2]", "result": 1.41}, {"measurement": "glycan array binding signal (z-score)", "setting": "[3]", "result": -0.651}, {"measurement": "glycan array binding signal (z-score)", "setting": "[4]", "result": -0.364}, {"measurement": "glycan array binding signal (z-score)", "setting": "[5]", "result": 0.422}, {"measurement": "glycan array binding signal (z-score)", "setting": "Gal(a1-3)Gal(b1-4)Glc", "result": -0.298}, {"measurement": "glycan array binding signal (z-score)", "setting": "Gal(a1-3)Gal(b1-4)GlcNAc", "result": -0.971}, {"measurement": "glycan array binding signal (z-score)", "setting": "[6]", "result": -0.077}, {"measurement": "glycan array binding signal (z-score)", "setting": "[7]", "result": 0.219}, {"measurement": "glycan array binding signal (z-score)", "setting": "[8]", "result": -0.405}, {"measurement": "glycan array binding signal (z-score)", "setting": "[9]", "result": -0.507}, {"measurement": "glycan array binding signal (z-score)", "setting": "[10]", "result": -0.304}, {"measurement": "glycan array binding signal (z-score)", "setting": "[11]", "result": -0.26}, {"measurement": "glycan array binding signal (z-score)", "setting": "Gal(a1-3)GalNAc", "result": -0.559}, {"measurement": "glycan array binding signal (z-score)", "setting": "[12]", "result": 0.017}, {"measurement": "glycan array binding signal (z-score)", "setting": "[13]", "result": -0.768}, {"measurement": "glycan array binding signal (z-score)", "setting": "Gal(a1-4)Gal(b1-4)Glc", "result": -0.063}, {"measurement": "glycan array binding signal (z-score)", "setting": "Gal(a1-4)Gal(b1-4)GlcNAc", "result": 0.225}, {"measurement": "glycan array binding signal (z-score)", "setting": "[14]", "result": -0.497}, {"measurement": "glycan array binding signal (z-score)", "setting": "[15]", "result": -0.959}, {"measurement": "glycan array binding signal (z-score)", "setting": "Gal(a1-4)GlcNAc", "result": -0.325}, {"measurement": "glycan array binding signal (z-score)", "setting": "Gal(a1-6)Glc", "result": -0.367}, {"measurement": "glycan array binding signal (z-score)", "setting": "Gal(b1-2)Gal", "result": -0.929}, {"measurement": "glycan array binding signal (z-score)", "setting": "Gal(b1-3)Gal", "result": -0.761}, {"measurement": "glycan array binding signal (z-score)", "setting": "Gal(b1-3)Gal(b1-4)GlcNAc", "result": -0.88}, {"measurement": "glycan array binding signal (z-score)", "setting": "Gal(b1-3)GalNAc", "result": 0.278}, {"measurement": "glycan array binding signal (z-score)", "setting": "[16]", "result": -0.577}, {"measurement": "glycan array binding signal (z-score)", "setting": "[17]", "result": -0.471}, {"measurement": "glycan array binding signal (z-score)", "setting": "Gal(b1-3)GalNAc(b1-3)Gal", "result": -0.441}, {"measurement": "glycan array binding signal (z-score)", "setting": "[18]", "result": -0.071}, {"measurement": "glycan array binding signal (z-score)", "setting": "[19]", "result": 3.27}, {"measurement": "glycan array binding signal (z-score)", "setting": "[20]", "result": -0.784}, {"measurement": "glycan array binding signal (z-score)", "setting": "Gal(b1-3)GlcNAc", "result": -0.591}, {"measurement": "glycan array binding signal (z-score)", "setting": "[21]", "result": 0.153}, {"measurement": "glycan array binding signal (z-score)", "setting": "[22]", "result": -0.165}, {"measurement": "glycan array binding signal (z-score)", "setting": "Gal(b1-3)GlcNAc(b1-2)Man", "result": -0.224}, {"measurement": "glycan array binding signal (z-score)", "setting": "[23]", "result": -0.222}]}]}
